PubChem BioAssay AID1224830, NIAID, 2016
The whole screen tested about 18,000 reagents; shown is a random part of them. About 2,900 of them (16%) were called active. 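Calls are made per well; low scores hint the gene aids the LPS response, high scores that it dampens it.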 Entries without a mark were called inactive. Repeated entries: four replicate wells of each siRNA pool.

Aim: 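Regulators of TLR4 signalling towards TNF-alpha in macrophage-like cells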 (primary screen)
Cells: human THP-1 monocytic leukaemia cells, TNF dual-luciferase reporter clone, PMA-differentiated to macrophage-like cells
Knock-down reagent: siRNA pool against human genes, 50 nM
Timing: LPS for 4 h, given about 3 days after siRNA transfection
Challenge: bacterial LPS (TLR4 ligand), 10 ng/ml
Detection: 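Ratio of firefly to renilla light, scaled to the plate median and expressed as a robust z-score per replicate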
Scale: TNF reporter robust z-score: higher = stronger TNF reporter response to LPS
Rule for the call: 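a well is active when its z-score exceeds 2.8 or falls below -1.5; control wells carry no call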

WFDC8 [SID315460791] — TNF reporter robust z-score: 0.95
WFDC8 [SID315460791] — TNF reporter robust z-score: 0.33
WFDC8 [SID315460791] — TNF reporter robust z-score: -0.62
WFDC8 [SID315460791] — TNF reporter robust z-score: 0.03
HTR3A [SID315449368] — TNF reporter robust z-score: -0.62
HTR3A [SID315449368] — TNF reporter robust z-score: -0.3
HTR3A [SID315449368] — TNF reporter robust z-score: -1.48
HTR3A [SID315449368] — TNF reporter robust z-score: -1.17
KDF1 [SID315461723] — TNF reporter robust z-score: -0.58
KDF1 [SID315461723] — TNF reporter robust z-score: -0.61
KDF1 [SID315461723] — TNF reporter robust z-score: -1.1
KDF1 [SID315461723] — TNF reporter robust z-score: -0.45

Reformatted: entries from further up.
{"gene knocked down": "WFDC8", "PubChem SID": "SID315460791", "TNF reporter robust z-score": 0.95}
{"gene knocked down": "WFDC8", "PubChem SID": "SID315460791", "TNF reporter robust z-score": 0.33}
{"gene knocked down": "WFDC8", "PubChem SID": "SID315460791", "TNF reporter robust z-score": -0.62}
{"gene knocked down": "WFDC8", "PubChem SID": "SID315460791", "TNF reporter robust z-score": 0.03}

More results:
ELN [SID315448497] — TNF reporter robust z-score: 2.48
ELN [SID315448497] — TNF reporter robust z-score: 0.15
ELN [SID315448497] — TNF reporter robust z-score: -0.93
ELN [SID315448497] — TNF reporter robust z-score: 0.01
NNT [SID315455306] — TNF reporter robust z-score: 1.09
NNT [SID315455306] — TNF reporter robust z-score: 0.08
NNT [SID315455306] — TNF reporter robust z-score: 0.26
NNT [SID315455306] — TNF reporter robust z-score: 1.32
HP [SID315449303] — TNF reporter robust z-score: 0.01
HP [SID315449303] — TNF reporter robust z-score: 0.93
HP [SID315449303] — TNF reporter robust z-score: -1.22
HP [SID315449303] — TNF reporter robust z-score: -1.38
COXFA4L3 [SID315460353] — TNF reporter robust z-score: 0.72
COXFA4L3 [SID315460353] — TNF reporter robust z-score: 0.64
COXFA4L3 [SID315460353] — TNF reporter robust z-score: 0.06
COXFA4L3 [SID315460353] — TNF reporter robust z-score: 0.96
DKKL1 [SID315455929] — TNF reporter robust z-score: -1.58 (active)
DKKL1 [SID315455929] — TNF reporter robust z-score: -1.42
DKKL1 [SID315455929] — TNF reporter robust z-score: -1.61 (active)
DKKL1 [SID315455929] — TNF reporter robust z-score: -0.77
